{"source": "PubChem BioAssay AID504804 (Drosophila RNAi Screening Center, 2011)", "purpose": "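Knock-downs shielding fly cells from apoptosis caused by DNA damage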 (primary screen)", "cell system": "Drosophila Kc cells", "reagent": "long dsRNA against Drosophila genes, 0.5 µg dsRNA per well", "timing": "96 h (48 h knock-down, then 48 h drug)", "conditions": "doxorubicin 5 µg/ml for 48 h, added 48 h after dsRNA", "measurement": "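Viability measured as cellular ATP by luminescence after 48 h knock-down then 48 h doxorubicin at 5 µg/ml; unnormalised plate counts for each replicate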", "scale": "raw ATP luminescence: higher = more viable cells, protection from doxorubicin", "active means": "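z-score of 2 or more over plate mean in both duplicates, retained only when retests and separate dsRNAs confirm the protection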", "note": "In all, the deposit lists about 19,000 reagents; below is a random part of those that have a named target and a result. Of all reagents, 47 (0.25%) were called active. 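Signals are raw, not normalised; exact z-scores behind calls not deposited; actives needed confirmation, so some wells reaching 2 SD are inactive.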 Reagents against one gene are numbered here. A plus sign joins genes that one reagent is predicted to hit."}
The opening 3 entries, to show the layout:
{"gene knocked down": "CG11413 + CG4622", "reagent no.": 1, "raw ATP luminescence, replicate 1": 97683, "raw ATP luminescence, replicate 2": 56017, "Outcome": "inactive"}
{"gene knocked down": "CG1698", "reagent no.": 1, "raw ATP luminescence, replicate 1": 51810, "raw ATP luminescence, replicate 2": 40387, "Outcome": "inactive"}
{"gene knocked down": "CG14205", "reagent no.": 1, "raw ATP luminescence, replicate 1": 3.36e5, "raw ATP luminescence, replicate 2": 3.01e5, "Outcome": "inactive"}

Main list, from the start:
{"gene knocked down": "CG11413 + CG4622", "reagent no.": 1, "raw ATP luminescence, replicate 1": 97683, "raw ATP luminescence, replicate 2": 56017, "Outcome": "inactive"}
{"gene knocked down": "CG1698", "reagent no.": 1, "raw ATP luminescence, replicate 1": 51810, "raw ATP luminescence, replicate 2": 40387, "Outcome": "inactive"}
{"gene knocked down": "CG14205", "reagent no.": 1, "raw ATP luminescence, replicate 1": 3.36e5, "raw ATP luminescence, replicate 2": 3.01e5, "Outcome": "inactive"}
{"gene knocked down": "Eph", "reagent no.": 1, "raw ATP luminescence, replicate 1": 52100, "raw ATP luminescence, replicate 2": 59000, "Outcome": "inactive"}
{"gene knocked down": "CG13297", "reagent no.": 1, "raw ATP luminescence, replicate 1": 76550, "raw ATP luminescence, replicate 2": 79163, "Outcome": "inactive"}
{"gene knocked down": "CG12951", "reagent no.": 1, "raw ATP luminescence, replicate 1": 44363, "raw ATP luminescence, replicate 2": 55913, "Outcome": "inactive"}
{"gene knocked down": "LpR1", "reagent no.": 1, "raw ATP luminescence, replicate 1": 69870, "raw ATP luminescence, replicate 2": 75790, "Outcome": "inactive"}
{"gene knocked down": "LpR1", "reagent no.": 2, "raw ATP luminescence, replicate 1": 58690, "raw ATP luminescence, replicate 2": 53640, "Outcome": "inactive"}
{"gene knocked down": "Lcp65Af", "reagent no.": 1, "raw ATP luminescence, replicate 1": 76097, "raw ATP luminescence, replicate 2": 84790, "Outcome": "inactive"}
{"gene knocked down": "PGRP-LA", "reagent no.": 1, "raw ATP luminescence, replicate 1": 68527, "raw ATP luminescence, replicate 2": 56963, "Outcome": "inactive"}
{"gene knocked down": "PGRP-LA", "reagent no.": 2, "raw ATP luminescence, replicate 1": 63920, "raw ATP luminescence, replicate 2": 50967, "Outcome": "inactive"}
{"gene knocked down": "bs", "reagent no.": 1, "raw ATP luminescence, replicate 1": 36290, "raw ATP luminescence, replicate 2": 69267, "Outcome": "inactive"}
{"gene knocked down": "CG6638", "reagent no.": 1, "raw ATP luminescence, replicate 1": 80470, "raw ATP luminescence, replicate 2": 84640, "Outcome": "inactive"}
{"gene knocked down": "CG30031 + deltaTry + CG30025 + 1 more", "reagent no.": 1, "raw ATP luminescence, replicate 1": 2.52e5, "raw ATP luminescence, replicate 2": 2.75e5, "Outcome": "inactive"}
{"gene knocked down": "Jon66Ci", "reagent no.": 1, "raw ATP luminescence, replicate 1": 81500, "raw ATP luminescence, replicate 2": 95607, "Outcome": "inactive"}
{"gene knocked down": "Hyccin", "reagent no.": 1, "raw ATP luminescence, replicate 1": 58903, "raw ATP luminescence, replicate 2": 66023, "Outcome": "inactive"}
{"gene knocked down": "Nup62", "reagent no.": 1, "raw ATP luminescence, replicate 1": 52297, "raw ATP luminescence, replicate 2": 60410, "Outcome": "inactive"}
{"gene knocked down": "Ktl", "reagent no.": 1, "raw ATP luminescence, replicate 1": 34860, "raw ATP luminescence, replicate 2": 46870, "Outcome": "inactive"}
{"gene knocked down": "CkIIalpha", "reagent no.": 1, "raw ATP luminescence, replicate 1": 71047, "raw ATP luminescence, replicate 2": 70400, "Outcome": "inactive"}
{"gene knocked down": "CG1688", "reagent no.": 1, "raw ATP luminescence, replicate 1": 55760, "raw ATP luminescence, replicate 2": 49597, "Outcome": "inactive"}
{"gene knocked down": "mtd", "reagent no.": 1, "raw ATP luminescence, replicate 1": 63190, "raw ATP luminescence, replicate 2": 29320, "Outcome": "inactive"}
{"gene knocked down": "mtd", "reagent no.": 2, "raw ATP luminescence, replicate 1": 65987, "raw ATP luminescence, replicate 2": 28007, "Outcome": "inactive"}
{"gene knocked down": "mtd", "reagent no.": 3, "raw ATP luminescence, replicate 1": 60650, "raw ATP luminescence, replicate 2": 59397, "Outcome": "inactive"}
{"gene knocked down": "CG13243", "reagent no.": 1, "raw ATP luminescence, replicate 1": 75317, "raw ATP luminescence, replicate 2": 80863, "Outcome": "inactive"}
{"gene knocked down": "Rpt3", "reagent no.": 1, "raw ATP luminescence, replicate 1": 2.40e5, "raw ATP luminescence, replicate 2": 2.25e5, "Outcome": "inactive"}
{"gene knocked down": "Or69a", "reagent no.": 1, "raw ATP luminescence, replicate 1": 95523, "raw ATP luminescence, replicate 2": 83003, "Outcome": "inactive"}
{"gene knocked down": "CG14237", "reagent no.": 1, "raw ATP luminescence, replicate 1": 39280, "raw ATP luminescence, replicate 2": 46170, "Outcome": "inactive"}
{"gene knocked down": "CG17202", "reagent no.": 1, "raw ATP luminescence, replicate 1": 38837, "raw ATP luminescence, replicate 2": 39483, "Outcome": "inactive"}
